# PubChem BioAssay AID1259254 | NCATS | 2017
# Aim: 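Gene knock-downs that lead to re-replication, shown by excess G2 DNA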 (primary screen)
# Cells: human HCT116 colorectal cancer cells
# Reagents: single siRNA against human genes
# Timing: 3 days
# Read-out: 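Imaged Hoechst DNA stain sorts each cell into a cycle phase by DNA amount; per plate, G2 fraction set to 0% for non-targeting and 100% for GMNN siRNA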
# Scale: G2 robust z-score and G2 cells, % of GMNN control: higher = more G2 cells, more excess DNA replication; raw share of cells in G2: higher = larger share of cells with G2 DNA content
# Hit rule: 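An siRNA counts as active if its G2 robust z-score lies at least 5 MADs above the screen median; here such calls match roughly 38% of GMNN control or more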
# Shown is a random part of about 59,000 reagents tested. Of all reagents, about 1,550 (2.6%) got an active call. 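G2 share is only a proxy for re-replication; each gene was hit by three separate siRNAs, and active genes were retested.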 Raw values are not corrected between plates. Reagents against one gene are numbered here. Not stated in the record: the amount of reagent.
gene,reagent no.,G2 robust z-score,"G2 cells, % of GMNN control",raw share of cells in G2 (%),call
GP6 (glycoprotein VI platelet),1,-0.561,-0.978,3.48,inactive
GP6 (glycoprotein VI platelet),2,-0.63,-1.46,4,inactive
GP6 (glycoprotein VI platelet),3,-0.869,-3.15,2.26,inactive
ZFAND4 (zinc finger AN1-type containing 4),1,0.337,5.34,3.38,inactive
ZFAND4 (zinc finger AN1-type containing 4),2,3.22,25.6,14.4,inactive
ZFAND4 (zinc finger AN1-type containing 4),3,0.0676,3.44,4.36,inactive
FAIM2 (Fas apoptotic inhibitory molecule 2),1,-0.188,1.64,5.63,inactive
FAIM2 (Fas apoptotic inhibitory molecule 2),2,1.67,14.7,10.2,inactive
FAIM2 (Fas apoptotic inhibitory molecule 2),3,2.27,18.9,10.3,inactive
TSPYL6 (TSPY like 6),1,-0.528,-0.744,3.52,inactive
TSPYL6 (TSPY like 6),2,-0.015,2.86,4.65,inactive
TSPYL6 (TSPY like 6),3,-0.127,2.08,5.52,inactive
SBDS (SBDS ribosome maturation factor),1,2.08,17.6,10.6,inactive
SBDS (SBDS ribosome maturation factor),2,-0.108,2.21,5.38,inactive
SBDS (SBDS ribosome maturation factor),3,4.99,38.1,15.3,inactive
OR2W5,1,3.7,29,13.3,inactive
OR2W5,2,-0.234,1.32,3.53,inactive
OR2W5,3,-0.943,-3.66,2.88,inactive
"PIN1 (peptidylprolyl cis/trans isomerase, NIMA-interacting 1)",1,-0.167,1.79,5.38,inactive
"PIN1 (peptidylprolyl cis/trans isomerase, NIMA-interacting 1)",2,9.2,67.7,24.7,active
"PIN1 (peptidylprolyl cis/trans isomerase, NIMA-interacting 1)",3,-0.518,-0.677,3.29,inactive
ZFYVE9 (zinc finger FYVE-type containing 9),1,6.96,52,21.6,active
ZFYVE9 (zinc finger FYVE-type containing 9),2,-0.289,0.935,5.99,inactive
ZFYVE9 (zinc finger FYVE-type containing 9),3,2.24,18.7,11.2,inactive
"FARP1 (FERM, ARH/RhoGEF and pleckstrin domain protein 1)",1,-1.63,-8.53,3.12,inactive
"FARP1 (FERM, ARH/RhoGEF and pleckstrin domain protein 1)",2,-1.14,-5.04,3.51,inactive
"FARP1 (FERM, ARH/RhoGEF and pleckstrin domain protein 1)",3,-0.651,-1.61,3.32,inactive
OCEL1 (occludin/ELL domain containing 1),1,-0.759,-2.37,3.55,inactive
OCEL1 (occludin/ELL domain containing 1),2,-1.34,-6.49,1.7,inactive
OCEL1 (occludin/ELL domain containing 1),3,-0.461,-0.275,2.62,inactive
PODN (podocan),1,0.194,4.33,6.12,inactive
PODN (podocan),2,0.0464,3.29,7.2,inactive
PODN (podocan),3,-0.352,0.494,5.18,inactive
DHRS13 (dehydrogenase/reductase 13),1,0.441,6.07,6.92,inactive
DHRS13 (dehydrogenase/reductase 13),2,-0.873,-3.17,3.37,inactive
DHRS13 (dehydrogenase/reductase 13),3,0.827,8.79,10.1,inactive
RALGPS2-AS1 (RALGPS2 antisense RNA 1),1,-0.577,-1.09,3.36,inactive
RALGPS2-AS1 (RALGPS2 antisense RNA 1),2,4.19,32.4,15.3,inactive
RALGPS2-AS1 (RALGPS2 antisense RNA 1),3,-0.342,0.561,3.22,inactive
"B4GALT7 (beta-1,4-galactosyltransferase 7)",1,5.13,39,17.2,active
"B4GALT7 (beta-1,4-galactosyltransferase 7)",2,-0.828,-2.86,5.22,inactive
"B4GALT7 (beta-1,4-galactosyltransferase 7)",3,-0.249,1.21,4.28,inactive
KCNIP2 (potassium voltage-gated channel interacting protein 2),1,0.0411,3.26,3.94,inactive
KCNIP2 (potassium voltage-gated channel interacting protein 2),2,-0.873,-3.18,4.47,inactive
KCNIP2 (potassium voltage-gated channel interacting protein 2),3,-1.46,-7.29,1.34,inactive
"SPNS1 (SPNS lysolipid transporter 1, lysophospholipid)",1,0.896,9.27,9.29,inactive
"SPNS1 (SPNS lysolipid transporter 1, lysophospholipid)",2,1.31,12.2,9.29,inactive
"SPNS1 (SPNS lysolipid transporter 1, lysophospholipid)",3,-0.503,-0.574,3.99,inactive
RPS27AP5 (ribosomal protein S27a pseudogene 5),1,6.47,48.5,20.4,active
RPS27AP5 (ribosomal protein S27a pseudogene 5),2,0.591,7.13,6.51,inactive
RPS27AP5 (ribosomal protein S27a pseudogene 5),3,6.33,47.5,25,active
ZNF493 (zinc finger protein 493),1,-0.376,0.323,3.2,inactive
ZNF493 (zinc finger protein 493),2,-0.105,2.23,3.94,inactive
ZNF493 (zinc finger protein 493),3,-0.994,-4.03,2.11,inactive
AIP (AHR interacting HSP90 co-chaperone),1,-0.0724,2.46,4.34,inactive
AIP (AHR interacting HSP90 co-chaperone),2,-1.03,-4.27,4.09,inactive
AIP (AHR interacting HSP90 co-chaperone),3,-0.717,-2.07,2.47,inactive
BANK1 (B cell scaffold protein with ankyrin repeats 1),1,3.34,26.5,18,inactive
BANK1 (B cell scaffold protein with ankyrin repeats 1),2,-0.895,-3.33,3.25,inactive
BANK1 (B cell scaffold protein with ankyrin repeats 1),3,0.646,7.51,7.47,inactive
TRAF7 (TNF receptor associated factor 7),1,0.797,8.58,6.96,inactive
TRAF7 (TNF receptor associated factor 7),2,0.197,4.35,4.75,inactive
TRAF7 (TNF receptor associated factor 7),3,-0.886,-3.26,1.41,inactive
SAP30L (SAP30 like),1,1.93,16.5,11.3,inactive
SAP30L (SAP30 like),2,-1.16,-5.19,2.03,inactive
SAP30L (SAP30 like),3,-1.57,-8.1,0.162,inactive
"FAM169BP (family with sequence similarity 169 member B, pseudogene)",1,0.941,9.59,7.14,inactive
"FAM169BP (family with sequence similarity 169 member B, pseudogene)",2,2.03,17.3,9.73,inactive
"FAM169BP (family with sequence similarity 169 member B, pseudogene)",3,0.532,6.71,5.31,inactive

Entries listed so far whose gene name starts with K or k:
gene,reagent no.,G2 robust z-score,"G2 cells, % of GMNN control",raw share of cells in G2 (%),call
KCNIP2 (potassium voltage-gated channel interacting protein 2),1,0.0411,3.26,3.94,inactive
KCNIP2 (potassium voltage-gated channel interacting protein 2),2,-0.873,-3.18,4.47,inactive
KCNIP2 (potassium voltage-gated channel interacting protein 2),3,-1.46,-7.29,1.34,inactive
